Measured data: PubChem BioAssay AID1259291 (Sanger Institute, 2017)
In all, the deposit lists 794 reagents; this is an unselected part. Over the whole deposit, 15 (1.9%) got an active call. 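Calls rest on knock-down alone; drug synergy scores do not affect them; drugs added a day post-transfection, DMSO vehicle as comparison.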 A number with no mark means an inactive call. No viability above 1 is reported: the scale is capped. Further read-outs or replicates are left out here. Not given: the amount of reagent, the time to read-out.

Screen: 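Genes needed for HT29 colorectal cancer cell survival or for sensitivity to drugs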 (primary screen)
Cell system: HT29 human colorectal cancer cells
Reagent: siRNA pool against human genes
Treatment: anchor drugs added a day after transfection: BYL719 at 1 µM, cetuximab at 5 µg/ml or trametinib at 10 nM, or DMSO vehicle alone
Read-out: 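Cell viability as a fraction of the non-targeting pool, mean of replicates, robust z-scores from control wells; synergy scores for BYL719 (1 µM), cetuximab (5 µg/ml), trametinib (10 nM)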
Scale: robust z-score, knock-down alone and viability, knock-down alone: higher = more viable cells; synergy score with BYL719: higher = stronger synergistic killing with drug
Rule for the call: 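Essential when the robust z-score for knock-down without any drug is below -3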
Calls: active = essential (knock-down alone); inactive = no change alone

gene knocked down,"robust z-score, knock-down alone","viability, knock-down alone (fraction of control)",synergy score with BYL719
NUAK2 (NUAK family kinase 2),0.552,1,0.123
NTRK2 (neurotrophic receptor tyrosine kinase 2),-1.19,0.892,-0.192
SYK (spleen associated tyrosine kinase),0.447,0.993,0.255
ATR (ATR checkpoint kinase),0.552,1,0.0512
DAPK2 (death associated protein kinase 2),0.552,1,0.116
ACVR1C (activin A receptor type 1C),0.552,1,0.0729
ERN2 (endoplasmic reticulum to nucleus signaling 2),-1.02,0.902,-0.0324
CILK1 (ciliogenesis associated kinase 1),-0.95,0.907,0.0795
GTF2H1 (general transcription factor IIH subunit 1),0.552,1,0.0514
TCF7L2 (transcription factor 7 like 2),-3.56 (active),0.745,-0.0605
NAGK (N-acetylglucosamine kinase),0.552,1,0.00324
AURKA (aurora kinase A),-2.79,0.793,0.0704
PXK (PX domain containing serine/threonine kinase like),0.155,0.975,-0.0869
STRADB (STE20 related adaptor beta),-0.896,0.91,-0.0852
IP6K1 (inositol hexakisphosphate kinase 1),0.552,1,-0.134
GK2 (glycerol kinase 2),0.552,1,-0.00258
IRAK2 (interleukin 1 receptor associated kinase 2),0.552,1,-0.104
EPHA7 (EPH receptor A7),-2.07,0.838,-0.0301
RIPK3 (receptor interacting serine/threonine kinase 3),-1.01,0.903,0.00414
EIF2AK1 (eukaryotic translation initiation factor 2 alpha kinase 1),0.552,1,-0.0444
TGFBR1 (transforming growth factor beta receptor 1),0.552,1,-0.0417
AURKB (aurora kinase B),0.552,1,0.098
STK10 (serine/threonine kinase 10),0.552,1,0.00309
EIF2AK2 (eukaryotic translation initiation factor 2 alpha kinase 2),-0.17,0.955,-0.148
GRK5 (G protein-coupled receptor kinase 5),0.552,1,-0.111
ARID1A (AT-rich interaction domain 1A),-0.472,0.936,0.0193
ALPK1 (alpha kinase 1),0.552,1,0.0665
SYNCRIP (synaptotagmin binding cytoplasmic RNA interacting protein),-1.07,0.9,0.0307
CAD,0.552,1,-0.103
PGK1 (phosphoglycerate kinase 1),0.552,1,0.0428
DGKH (diacylglycerol kinase eta),0.552,1,0.00401
STK32C (serine/threonine kinase 32C),0.552,1,-0.0755
CDK10 (cyclin dependent kinase 10),0.337,0.987,0.0121
AMER1 (APC membrane recruitment protein 1),0.552,1,0.0233
CDKL2 (cyclin dependent kinase like 2),0.552,1,0.127
PAK6 (p21 (RAC1) activated kinase 6),0.552,1,-0.00863
ACO1 (aconitase 1),-0.0889,0.96,0.16
NEK11 (NIMA related kinase 11),-2.03,0.84,-0.0763
MED12 (mediator complex subunit 12),-1.18,0.893,-0.0281
EFNA4 (ephrin A4),0.387,0.99,-0.166
WEE1 (WEE1 G2 checkpoint kinase),-5.36 (active),0.633,0.0364
TAF1L (TATA-box binding protein associated factor 1 like),-0.59,0.929,-0.0893
BRD2 (bromodomain containing 2),0.552,1,-0.111
"PIKFYVE (phosphoinositide kinase, FYVE-type zinc finger containing)",0.552,1,-0.148
PHKG2 (phosphorylase kinase catalytic subunit gamma 2),0.552,1,0.0137
MARK1 (microtubule affinity regulating kinase 1),0.552,1,0.0716
PRKD3 (protein kinase D3),-2.6,0.804,-0.181
SMG1,-1.83,0.852,-0.15
PRKAA2 (protein kinase AMP-activated catalytic subunit alpha 2),0.552,1,-0.0415
"PFKL (phosphofructokinase, liver type)",-1.46,0.875,-0.0918
